Laboratory results as given in publication PMC6614414.
No constants are given. Whether binding was seen depends on the method and setting. In cells and extracts the contact can be indirect. Some results given as binding are weak or reduced against the parent protein; the word gives no strength.

Protein sequences, listed by entry. Tags and fused reporters are not part of them.
UniProt Q96S59: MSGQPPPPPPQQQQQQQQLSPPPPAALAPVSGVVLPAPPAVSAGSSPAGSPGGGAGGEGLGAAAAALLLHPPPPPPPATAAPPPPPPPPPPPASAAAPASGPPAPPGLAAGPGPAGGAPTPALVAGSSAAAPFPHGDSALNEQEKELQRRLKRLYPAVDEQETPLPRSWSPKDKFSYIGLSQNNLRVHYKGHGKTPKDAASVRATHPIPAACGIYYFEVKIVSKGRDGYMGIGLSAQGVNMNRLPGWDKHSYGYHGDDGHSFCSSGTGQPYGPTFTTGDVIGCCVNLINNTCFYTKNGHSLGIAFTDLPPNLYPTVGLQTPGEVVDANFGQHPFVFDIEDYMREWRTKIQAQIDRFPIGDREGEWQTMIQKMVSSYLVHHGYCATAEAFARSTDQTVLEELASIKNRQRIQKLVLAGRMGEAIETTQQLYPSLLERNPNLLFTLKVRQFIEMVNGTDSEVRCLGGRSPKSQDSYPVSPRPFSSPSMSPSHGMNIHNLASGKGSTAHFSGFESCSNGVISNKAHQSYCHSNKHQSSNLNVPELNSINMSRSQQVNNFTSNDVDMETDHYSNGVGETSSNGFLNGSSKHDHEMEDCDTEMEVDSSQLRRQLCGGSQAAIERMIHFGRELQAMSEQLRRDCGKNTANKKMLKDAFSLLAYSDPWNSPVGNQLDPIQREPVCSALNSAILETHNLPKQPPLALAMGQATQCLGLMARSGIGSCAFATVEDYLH
UniProt Q8IUR7: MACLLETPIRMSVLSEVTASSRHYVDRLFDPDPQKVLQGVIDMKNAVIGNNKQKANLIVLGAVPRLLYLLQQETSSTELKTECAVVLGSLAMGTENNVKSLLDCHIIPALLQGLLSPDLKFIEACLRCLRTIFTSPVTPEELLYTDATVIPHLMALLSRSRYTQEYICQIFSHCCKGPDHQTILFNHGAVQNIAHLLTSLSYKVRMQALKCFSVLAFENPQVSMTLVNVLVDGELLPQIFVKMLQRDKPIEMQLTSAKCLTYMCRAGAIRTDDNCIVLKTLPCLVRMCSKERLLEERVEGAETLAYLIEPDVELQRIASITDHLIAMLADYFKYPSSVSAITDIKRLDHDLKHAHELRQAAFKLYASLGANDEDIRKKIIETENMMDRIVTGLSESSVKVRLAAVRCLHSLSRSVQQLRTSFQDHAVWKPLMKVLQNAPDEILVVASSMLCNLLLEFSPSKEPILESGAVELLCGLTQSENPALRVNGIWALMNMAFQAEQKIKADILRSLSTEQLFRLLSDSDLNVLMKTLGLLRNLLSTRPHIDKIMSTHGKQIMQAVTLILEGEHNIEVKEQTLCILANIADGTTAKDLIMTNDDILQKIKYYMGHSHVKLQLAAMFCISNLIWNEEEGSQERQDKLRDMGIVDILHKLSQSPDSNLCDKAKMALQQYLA
UniProt Q9H871: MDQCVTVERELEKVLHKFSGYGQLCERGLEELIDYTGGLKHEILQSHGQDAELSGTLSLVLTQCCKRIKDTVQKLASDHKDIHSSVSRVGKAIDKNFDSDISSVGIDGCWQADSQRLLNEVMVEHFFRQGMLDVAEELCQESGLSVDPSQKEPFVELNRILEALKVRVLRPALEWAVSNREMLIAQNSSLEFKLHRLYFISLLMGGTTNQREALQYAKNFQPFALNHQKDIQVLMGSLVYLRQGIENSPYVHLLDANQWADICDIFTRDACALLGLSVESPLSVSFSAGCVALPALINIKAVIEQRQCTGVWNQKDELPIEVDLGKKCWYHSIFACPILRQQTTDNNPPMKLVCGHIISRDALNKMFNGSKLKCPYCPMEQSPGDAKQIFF
UniProt Q9H7D7: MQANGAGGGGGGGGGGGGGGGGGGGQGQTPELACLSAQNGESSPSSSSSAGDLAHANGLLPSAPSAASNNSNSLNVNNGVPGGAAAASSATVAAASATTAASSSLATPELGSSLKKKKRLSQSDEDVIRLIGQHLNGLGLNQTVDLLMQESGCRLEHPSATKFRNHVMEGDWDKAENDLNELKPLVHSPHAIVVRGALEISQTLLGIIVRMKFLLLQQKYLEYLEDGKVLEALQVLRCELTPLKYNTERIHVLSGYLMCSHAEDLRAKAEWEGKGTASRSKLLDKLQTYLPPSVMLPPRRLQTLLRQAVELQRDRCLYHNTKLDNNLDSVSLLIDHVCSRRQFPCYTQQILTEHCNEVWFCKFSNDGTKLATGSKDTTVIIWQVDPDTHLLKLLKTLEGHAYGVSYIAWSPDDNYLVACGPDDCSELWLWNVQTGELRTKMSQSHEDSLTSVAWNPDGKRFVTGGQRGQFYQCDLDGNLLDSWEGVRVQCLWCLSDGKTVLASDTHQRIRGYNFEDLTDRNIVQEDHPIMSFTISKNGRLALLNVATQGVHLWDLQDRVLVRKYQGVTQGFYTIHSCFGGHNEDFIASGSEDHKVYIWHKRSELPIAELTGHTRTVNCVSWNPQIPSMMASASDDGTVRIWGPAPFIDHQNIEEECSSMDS

Target: Ran binding protein M (RanBPM) (human (endogenous in HEK293)) (UniProt Q96S59)
Assay: co-IP; HEK293 whole cell extracts adjusted to 0.25% NP-40, pre-cleared, RanBPM antibody overnight at 4 °C, Dynabeads protein G, washed three times in lysis buffer; Western blot; mouse IgG as negative control; also from RMND5A KO cells (Supplementary Fig. 4)

Armadillo Repeat Containing 8 isoform α (ARMC8α) (from UniProt Q8IUR7 1-673)
binding: binds

Required For Meiotic Nuclear Division 5 Homolog A (RMND5A), endogenous (from UniProt Q9H871 1-391)
binding: binds

WD repeat-containing protein 26 (WDR26), endogenous (from UniProt Q9H7D7 1-661)
binding: binds
